Where two headings read alike, the source gives them in different places. At least one compound was matched to its structure with a doubt left.
Test system: ICR-JCL male mice
Settings: 10 mg./kg. i.v., 10 days, 5 weeks after final administration

Measured: degree of fibrosis in the lung

Cc1c(N)nc([C@H](CC(N)=O)NC[C@H](N)C(N)=O)nc1C(=O)N[C@H](C(=O)N[C@H](C)[C@@H](O)[C@H](C)C(=O)N[C@H](C(=O)NCCc1nc(-c2nc(C(=O)NCCCCN=C(N)N)cs2)cs1)[C@@H](C)O)[C@@H](O[C@@H]1O[C@@H](CO)[C@@H](O)[C@H](O)[C@@H]1O[C@H]1O[C@H](CO)[C@@H](O)[C@H](OC(N)=O)[C@@H]1O)c1cnc[nH]1 [bleomycin B2, 4-guanidinobutylamino-bleomycin]
+: Mouse 1, Lung L | Mouse 3, Lung L | Mouse 3, Lung R | Mouse 13, Lung R | Mouse 17, Lung L | Mouse 19, Lung R
++: Mouse 5, Lung L
-: Mouse 1, Lung R | Mouse 7, Lung L | Mouse 11, Lung L | Mouse 11, Lung R | Mouse 13, Lung L | Mouse 15, Lung L | Mouse 15, Lung R | Mouse 17, Lung R | Mouse 19, Lung L
±: Mouse 5, Lung R | Mouse 7, Lung R | Mouse 9, Lung L | Mouse 9, Lung R

From patent US3932374A, “Bleomycinic acid and process for preparing thereof” (Zaidan Hojin Biseibutsu Kagaku Kenkyu Kai, priority 1971, dated 1976)
